No constants are given. Whether binding was seen depends on the method and setting. Binding seen in cells or lysates may run through a third protein. Binding calls can cover weak binding; strength is not graded here.
T1: Angiopoietin-like protein 3 (ANGPTL3) (human (endogenous in HepG2)) (UniProt Q9Y5C1)
T1 sequence: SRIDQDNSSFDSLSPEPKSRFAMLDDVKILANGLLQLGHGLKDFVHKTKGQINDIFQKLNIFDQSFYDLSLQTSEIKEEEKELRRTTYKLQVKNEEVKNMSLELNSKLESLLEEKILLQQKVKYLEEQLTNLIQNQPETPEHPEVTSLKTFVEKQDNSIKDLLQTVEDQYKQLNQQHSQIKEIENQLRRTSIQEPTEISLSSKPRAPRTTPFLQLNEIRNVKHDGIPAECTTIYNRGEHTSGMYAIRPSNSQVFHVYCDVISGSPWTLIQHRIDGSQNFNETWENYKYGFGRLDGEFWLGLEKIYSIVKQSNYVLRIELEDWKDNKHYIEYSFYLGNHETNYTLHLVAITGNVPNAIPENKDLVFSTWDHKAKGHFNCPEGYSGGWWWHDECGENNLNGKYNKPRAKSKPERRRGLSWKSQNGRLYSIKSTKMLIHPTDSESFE

Chains of the proteins cited; added tags and fusions are not shown. Lines headed by an entry give the natural chain unless they say otherwise; changes in a name come on top.
UniProt Q8NBP7: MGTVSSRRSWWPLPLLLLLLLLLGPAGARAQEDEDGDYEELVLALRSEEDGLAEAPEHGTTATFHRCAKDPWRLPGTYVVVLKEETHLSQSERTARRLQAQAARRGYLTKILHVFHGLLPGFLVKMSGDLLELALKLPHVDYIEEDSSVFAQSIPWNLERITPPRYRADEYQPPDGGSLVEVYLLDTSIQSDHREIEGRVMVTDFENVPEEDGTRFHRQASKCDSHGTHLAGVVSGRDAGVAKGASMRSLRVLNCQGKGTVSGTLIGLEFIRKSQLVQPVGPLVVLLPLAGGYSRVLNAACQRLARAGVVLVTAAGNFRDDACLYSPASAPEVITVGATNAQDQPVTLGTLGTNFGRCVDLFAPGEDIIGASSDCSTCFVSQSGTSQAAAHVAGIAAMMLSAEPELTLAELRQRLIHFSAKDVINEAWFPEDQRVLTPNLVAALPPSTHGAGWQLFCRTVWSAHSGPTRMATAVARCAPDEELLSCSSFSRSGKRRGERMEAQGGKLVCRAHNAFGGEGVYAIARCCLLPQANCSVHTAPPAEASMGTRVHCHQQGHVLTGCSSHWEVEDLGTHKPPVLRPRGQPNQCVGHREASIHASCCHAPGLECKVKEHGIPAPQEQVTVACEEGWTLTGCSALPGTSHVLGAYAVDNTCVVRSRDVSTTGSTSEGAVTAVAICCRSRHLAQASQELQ

B1: Angiopoietin-like protein 3 (ANGPTL3) (protein, UniProt Q9Y5C1 17-460)
chain: T1 sequence

How the values were obtained:
Test in all cases: co-IP
[1] = molecular target: T1, Angiopoietin-like protein 3 (ANGPTL3) (human (endogenous in HepG2))
[2] = molecular target: proprotein convertase subtilisin/kexin-like 9 (PCSK9), intracellular (human (endogenous in HepG2)) (UniProt Q8NBP7)
[3] = molecular target: mature form of proprotein convertase subtilisin/kexin-like 9 (PCSK9), secreted (human (endogenous in HepG2))

Molecule	binding [1]	binding [2]	binding [3]
proprotein convertase subtilisin/kexin-like 9 (PCSK9), intracellular (from UniProt Q8NBP7-1)	binds		
B1		binds	binds

From paper doi:10.1101/2025.01.05.631413
